Laboratory results taken from US20160024208A1.
Results are given in words; binding and its absence hold for the method and conditions named. Some binding calls cover weakened binding; strength is not graded here.

Amino acid sequences for entries named in this document (tags omitted). A change or cut given only in a name is not applied to a line headed by its entry.
UniProt Q15858: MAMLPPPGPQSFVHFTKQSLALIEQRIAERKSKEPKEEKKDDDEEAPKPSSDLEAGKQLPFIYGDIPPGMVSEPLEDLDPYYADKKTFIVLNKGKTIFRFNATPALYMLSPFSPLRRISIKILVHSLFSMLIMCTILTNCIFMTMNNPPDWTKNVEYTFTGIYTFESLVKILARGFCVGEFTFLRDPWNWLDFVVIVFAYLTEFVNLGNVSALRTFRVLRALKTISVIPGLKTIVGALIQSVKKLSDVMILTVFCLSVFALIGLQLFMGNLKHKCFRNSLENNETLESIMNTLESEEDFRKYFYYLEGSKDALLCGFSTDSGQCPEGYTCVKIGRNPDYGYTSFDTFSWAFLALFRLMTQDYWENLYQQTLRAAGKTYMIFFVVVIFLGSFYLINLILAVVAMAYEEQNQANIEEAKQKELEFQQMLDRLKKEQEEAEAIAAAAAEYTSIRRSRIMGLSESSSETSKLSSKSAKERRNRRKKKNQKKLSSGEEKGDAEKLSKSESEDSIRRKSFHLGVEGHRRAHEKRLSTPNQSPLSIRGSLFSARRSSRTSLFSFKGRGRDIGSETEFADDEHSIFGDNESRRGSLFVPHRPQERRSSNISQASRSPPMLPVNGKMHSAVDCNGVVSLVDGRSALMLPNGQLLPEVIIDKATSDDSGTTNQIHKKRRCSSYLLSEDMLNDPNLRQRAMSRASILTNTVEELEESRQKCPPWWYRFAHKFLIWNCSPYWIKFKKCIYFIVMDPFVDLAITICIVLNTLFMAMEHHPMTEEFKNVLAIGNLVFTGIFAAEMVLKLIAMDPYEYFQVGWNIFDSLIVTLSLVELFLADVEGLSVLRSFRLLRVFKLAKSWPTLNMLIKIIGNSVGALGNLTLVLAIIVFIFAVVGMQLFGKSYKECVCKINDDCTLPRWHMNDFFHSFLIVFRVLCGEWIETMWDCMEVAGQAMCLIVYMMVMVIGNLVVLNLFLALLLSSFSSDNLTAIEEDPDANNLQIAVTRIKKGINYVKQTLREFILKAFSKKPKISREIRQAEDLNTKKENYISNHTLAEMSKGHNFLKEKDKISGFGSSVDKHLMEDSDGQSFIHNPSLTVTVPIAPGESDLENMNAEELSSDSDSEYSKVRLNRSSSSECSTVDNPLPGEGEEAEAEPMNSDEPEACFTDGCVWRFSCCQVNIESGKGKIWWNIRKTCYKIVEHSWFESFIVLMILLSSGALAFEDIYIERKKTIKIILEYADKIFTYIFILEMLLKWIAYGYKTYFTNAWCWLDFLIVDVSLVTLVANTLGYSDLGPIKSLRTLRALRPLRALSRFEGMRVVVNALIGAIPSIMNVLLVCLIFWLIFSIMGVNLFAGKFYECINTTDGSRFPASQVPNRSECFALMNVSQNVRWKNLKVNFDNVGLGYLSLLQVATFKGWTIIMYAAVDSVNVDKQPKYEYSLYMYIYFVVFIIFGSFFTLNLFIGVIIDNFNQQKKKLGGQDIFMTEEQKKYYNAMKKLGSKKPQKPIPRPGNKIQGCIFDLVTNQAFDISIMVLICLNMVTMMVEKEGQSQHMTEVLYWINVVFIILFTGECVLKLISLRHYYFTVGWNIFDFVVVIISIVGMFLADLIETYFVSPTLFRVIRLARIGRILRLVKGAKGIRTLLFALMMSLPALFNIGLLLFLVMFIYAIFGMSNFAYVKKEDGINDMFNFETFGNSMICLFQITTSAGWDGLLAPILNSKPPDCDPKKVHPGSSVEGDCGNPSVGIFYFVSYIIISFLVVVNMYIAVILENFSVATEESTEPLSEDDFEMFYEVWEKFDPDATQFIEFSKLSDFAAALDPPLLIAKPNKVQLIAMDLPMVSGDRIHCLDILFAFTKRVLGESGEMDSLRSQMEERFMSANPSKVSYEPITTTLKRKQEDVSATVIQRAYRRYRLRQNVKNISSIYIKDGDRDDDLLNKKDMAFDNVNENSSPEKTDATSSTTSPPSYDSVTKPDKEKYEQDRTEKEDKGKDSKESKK

Tests used:
[1] = target: full-length human Nav1.7 fused at its N-terminus to GFP, expressed in HEK293 cells (human) (UniProt Q15858); assay: immunostaining of fixed, permeabilized HEK293 cells
[2] = target: N-Term Biotin-Nav1.7 (3-3) peptide, human (same sequence of EC3-3 for mulatta) (human (same sequence of EC3-3 for mulatta)); assay: ELISA and Biacore summary; mulatta column
[3] = target: N-Term Biotin-Nav1.7 (3-3) peptide, human (same sequence of EC3-3 for mulatta) (human (same sequence of EC3-3 for mulatta)); assay: ELISA (first token of ELISA/Biacore summary)
[4] = target: human Nav 1.7 in DRG neurons of Scn9a hu/+ mice (human) (UniProt Q15858); assay: immunocytochemistry on cultured DRG neurons, antibody 66 nM
[5] = target: Native Nav1.7 (3-1) peptide, human (human); assay: SPR, captured antibody, peptide analyte

binding [2]	binding [3]	Binder	other results
		H4H385B (antibody, V domains shown) VH: QVQLVESGGGVVQPGRSLRLSCAASGFTFSSYGMHWVRQAPGKGLEWVALISYVGSNKHYADSVKGRFTISRDNSKNTLYLQMNSLRAEDTAVYYCAKSRGYSYGLDYWGQGTLVTVSS VL: DIQMTQSPDSLAVSLGERATINCKSSQTVLHSSNNQNNLVWYQQKPGQPPKLLIYWASTRESGVPDRFSGSGSGTDFTLTISSLQAEDVAIYYCQQYYSTPYTFGQGTKLEIKR	binding [1]: binds
binds	binds	H1M852N (antibody, V domains shown) VH: QVQLVESGGGVVQPGRSLTLSCAASGFMFNRFGMHWVRQAPGKGLDWVAVIWYDGSNKYYADSVKGRFTISRDNSKNTLYLQVNSLRAEDTAVYYCAREGTPHYYDSSGLDYWGQGTLVTVSS VL: AIQMTQSPSSLSAYVGDRVTITCRASQDIRNDLGWYQQKPGKAPNLLIYDISSLQSGVPSRFSGSGSGTDFTLTISSLQPEDFATYYCLQDYNYPLTFGGGTKVEIK	
binds	binds	H4H468B (antibody, V domains shown) VH: EVQLVQSGGGVVQPGRSLRLSCTASGFTFSVYGIHWVRQAPGKGLEWVAVIWYDGSNKYYTDSVKGRFTISRDNSKNTLYLQMNSLRAEDTALYYCAREGDLSSSSGSGGYHYVVDVWGQGTMVTVSS VL: DIQMTQSPSSLSASVGDRVTITCRASQDIRNDLGWYQQKPGNAPKLLIYSTSSLQSGVPSRFSGSGSGTDFTLTISSLQPEDFATYYCLQDYNYPLTFGGGTKVEIKR	
		H1H1006B (antibody, V domains shown) VH: EVQLVESGPGLVKSSETLSLKCTVSGGSISSSGYYWGWIRQPPGKGLEWIGSIHRSGSTFYNPSLKSRVTISVDTSKSQFSLRLTSVTAADTSVYFCGRHGRDYYYGMDVWGQGTTVTVSS VL: DIQMTQSPSSVSASVGDRVTITCRSSQDINNWLVWYQQKPGKAPKVLIYGASRLQSGVPSRFSGSGSGTDFTLTISSLQPEDFATYYCQQANSFPLTFGGGTKVEIKR	binding [4]: binds
		H4H448B (antibody, V domains shown) VH: EVQLVQSGGGLVQPGRSLRLSCAASGFTFDDYAMHWVRQAPGKGLEWVSGISWNSGSIGYADSVKGRFTISRDNAKNSLYLQMNSLRAEDTALYYCAKDIEYYDILTGYYSYYIMDVWGQGTTVTVSS VL: DIRMTQSPSSLSASVGDRGTITCRASQNINSYLNWYQLKPGKAPKLLIFAASSLQSGVPSRFSGSGSGTDFTLTISSLQPEDFATYYCQQSYSSPFTFGQGTKVEIKR	binding [5]: binds
